# Reference: EP4473972A1, “COMBINATIONS COMPRISING AN ATR INHIBITOR WITH SYNERGISTIC EFFECT AGAINST GLIOMAS” (Eberhard-Karls-Universität Tübingen, priority 2023, dated 2024)
# At least one structure is not confirmed: it was looked up by name or label, or the drawing left a doubt.
# Experiments:
# [1] = system: LN229, LNZ308, GS-2 and GS-9 cells; experiment: 4x4 synergy map assay (ZIP synergy score), all four cell lines; type: cell-based; conditions: combined with AZD6738 (ATRi); across all four cell lines
# Experimental: (§1) The inventors seeded 5,000 or 10,000 cells, respectively, on day one, treated the next day in serum-free medium and incubated for up to 72 h. Subsequently, they measured cell viability using CellTiterBlue reagent (Promega, Madison, WI, US) according to manufacturer's instructions with a GloMax (Promega, Madison, Wl, US). The inventors normalized measurements to untreated cells.
# The inventors leveraged an acute cytotoxicity assay workflow to evaluate potential interaction partners for AZD6738 which were derived from transcriptomic, proteomic and genome-wide CRISPR/Cas9 genetic dependency analyses. In a 1×1/IC50×IC50 set-up, they treated LN229 and LNZ308 cells in serum free medium for 72 h. The inventors used the original Bliss Independence Criterion to evaluate synergism potential. For this, a predicted value for additivity, derived from the product of the two monotherapy settings, was compared to the actual measurement of the combined treatment of the two drugs. […] The inventors used the R package synergyfinder with zero interaction potential (ZIP) synergy scores calculated from 4x4 concentration matrices for each tested combination and the average across the plate; see He et al. (2018); Methods for High-throughput Drug Combination Screening and Synergy Scoring. […]
# [2] = system: primary cultures TUE-PC1-6; experiment: Combination treatment in primary glioma cultures (Bliss independence Criterion); type: cell-based; conditions: plus AZD6738; all six primary cultures
# Source text: Primary tumor tissue was obtained from fresh residual material upon resection at the Department of Neurosurgery, University Hospital Tübingen. The inventors cut the tissue in small pieces, washed it using Hanks Balanced Salt Solution (HBSS) (Gibco, Carlsbad, CA, US) and digested it by collagenase and dispase (Roche, Basel, CH). To remove any remaining erythrocytes, they used red blood cell lysis buffer (Sigma Aldrich, St. Louis, MO, US). The inventors then cultured the cells as GS cells in Neurobasal®-A medium. They first evaluated AZD6738 sensitivity of each primary culture and selected two concentrations. […] To evaluate combination treatment analyses, the inventors leveraged the Bliss independence Criterion.
# as §1
# [3] = system: LN229 and LNZ308 cells; experiment: 1x1 (IC50xIC50) pre-selection screen, acute cytotoxicity assay, Bliss Independence Criterion; type: cell-based, human; conditions: combined with AZD6738, 1x1 (IC50xIC50), 72 h, serum free medium
# Experimental: as §1
# The inventors leveraged an acute cytotoxicity assay workflow to evaluate potential interaction partners for AZD6738 which were derived from transcriptomic, proteomic and genome-wide CRISPR/Cas9 genetic dependency analyses. In a 1×1/IC50×IC50 set-up, they treated LN229 and LNZ308 cells in serum free medium for 72 h. The inventors used the original Bliss Independence Criterion to evaluate synergism potential. For this, a predicted value for additivity, derived from the product of the two monotherapy settings, was compared to the actual measurement of the combined treatment of the two drugs. […] BMC Systems Biology 4: 50. […] The inventors used the R package synergyfinder with zero interaction potential (ZIP) synergy scores calculated from 4x4 concentration matrices for each tested combination and the average across the plate; see He et al. (2018); Methods for High-throughput Drug Combination Screening and Synergy Scoring. […]
compound,measurement,setting,value
"Nc1nc(F)nc2c1ncn2[C@@H]1O[C@H](COP(=O)(O)O)[C@@H](O)[C@@H]1O [fludarabine phosphate, fludarabine-5-dihydrogen phosphate]",ZIP synergy score (synergism signature),[1],synergism signature
same,combination efficacy (Bliss Independence Criterion),[2],synergistic read-outs
same,Bliss synergy scores,[3],top scoring hits
